PubChem BioAssay AID1259254, NCATS, 2017
The whole screen tested about 59,000 reagents; this is a random part of them. About 1,550 of them (2.6%) were called active. 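G2 share is only a proxy for re-replication; each gene was hit by three separate siRNAs, and active genes were retested.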 Raw values vary from plate to plate and are shown uncorrected. The numbers tell different reagents against one gene apart. Not given: the amount of reagent.

Test: 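Finding genes that stop cells copying their DNA twice in one cycle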 (primary screen)
Cells: human HCT116 colorectal cancer cells
Reagent: single siRNA against human genes
Duration: 3 days
Read-out: 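Nuclei stained with Hoechst and imaged; cell-cycle phase assigned by DNA content; G2 share scaled per plate, non-targeting siRNA 0%, GMNN siRNA 100%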
Scale: G2 robust z-score and G2 cells, % of GMNN control: higher = more G2 cells, more excess DNA replication; raw share of cells in G2: higher = larger share of cells with G2 DNA content
Hit rule: 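Active siRNAs have a G2 robust z of 5 or more median absolute deviations over the median, which in these data means about 38% or higher of GMNN control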

gene	reagent no.	G2 robust z-score	G2 cells, % of GMNN control	raw share of cells in G2 (%)	Outcome
MRPL20 (mitochondrial ribosomal protein L20)	1	3.37	26.6	14.8	inactive
MRPL20 (mitochondrial ribosomal protein L20)	2	-0.262	1.12	4.6	inactive
MRPL20 (mitochondrial ribosomal protein L20)	3	-1.2	-5.44	1.4	inactive
CATSPERB (catsper channel auxiliary subunit beta)	1	-1.27	-6	1.95	inactive
CATSPERB (catsper channel auxiliary subunit beta)	2	4.4	33.9	19.1	inactive
CATSPERB (catsper channel auxiliary subunit beta)	3	-0.734	-2.2	1.78	inactive
FAM209B (family with sequence similarity 209 member B)	1	0.467	6.25	5.91	inactive
FAM209B (family with sequence similarity 209 member B)	2	-0.0891	2.34	4.42	inactive
FAM209B (family with sequence similarity 209 member B)	3	0.0354	3.22	6.01	inactive
RIN3 (Ras and Rab interactor 3)	1	1.77	15.4	10.9	inactive
RIN3 (Ras and Rab interactor 3)	2	-0.117	2.14	5.24	inactive
RIN3 (Ras and Rab interactor 3)	3	0.0264	3.15	3.24	inactive
ATG2A (autophagy related 2A)	1	4.09	31.7	17.4	inactive
ATG2A (autophagy related 2A)	2	0.0106	3.04	5.39	inactive
ATG2A (autophagy related 2A)	3	-0.0829	2.38	4.07	inactive
FOXR1 (forkhead box R1)	1	-0.135	2.02	5.55	inactive
FOXR1 (forkhead box R1)	2	1.94	16.6	10.8	inactive
FOXR1 (forkhead box R1)	3	-1.16	-5.19	3.48	inactive
ACTRT3 (actin related protein T3)	1	2.28	19	13.4	inactive
ACTRT3 (actin related protein T3)	2	-0.0429	2.67	5.16	inactive
ACTRT3 (actin related protein T3)	3	0.314	5.17	6.7	inactive
FBXL15 (F-box and leucine rich repeat protein 15)	1	-0.55	-0.9	4.21	inactive
FBXL15 (F-box and leucine rich repeat protein 15)	2	0.358	5.49	4.15	inactive
FBXL15 (F-box and leucine rich repeat protein 15)	3	3.55	27.9	16.7	inactive
TTC24 (tetratricopeptide repeat domain 24)	1	-1.09	-4.71	1.91	inactive
TTC24 (tetratricopeptide repeat domain 24)	2	-0.999	-4.06	1.6	inactive
TTC24 (tetratricopeptide repeat domain 24)	3	-0.455	-0.233	2.69	inactive
EIF2B5 (eukaryotic translation initiation factor 2B subunit epsilon)	1	-1.52	-7.75	2.54	inactive
EIF2B5 (eukaryotic translation initiation factor 2B subunit epsilon)	2	2.09	17.6	12.6	inactive
EIF2B5 (eukaryotic translation initiation factor 2B subunit epsilon)	3	1.5	13.5	9.54	inactive
BPIFC (BPI fold containing family C)	1	-0.0131	2.88	5.75	inactive
BPIFC (BPI fold containing family C)	2	-0.477	-0.391	4.54	inactive
BPIFC (BPI fold containing family C)	3	-1.29	-6.13	3.03	inactive
COX11 (cytochrome c oxidase copper chaperone COX11)	1	0.867	9.07	8.2	inactive
COX11 (cytochrome c oxidase copper chaperone COX11)	2	-0.00305	2.95	5.11	inactive
COX11 (cytochrome c oxidase copper chaperone COX11)	3	0.1	3.67	6.33	inactive
RUNX3 (RUNX family transcription factor 3)	1	4.77	36.5	17.2	inactive
RUNX3 (RUNX family transcription factor 3)	2	1.33	12.3	9.47	inactive
RUNX3 (RUNX family transcription factor 3)	3	3.95	30.7	15.4	inactive
LDAH (lipid droplet associated hydrolase)	1	0.777	8.43	8.25	inactive
LDAH (lipid droplet associated hydrolase)	2	0.596	7.16	7.82	inactive
LDAH (lipid droplet associated hydrolase)	3	-0.445	-0.163	2.65	inactive
C1QTNF6 (C1q and TNF related 6)	1	1.6	14.2	9.78	inactive
C1QTNF6 (C1q and TNF related 6)	2	9.08	66.9	23.3	active
C1QTNF6 (C1q and TNF related 6)	3	-0.157	1.86	2.36	inactive
GMFG (glia maturation factor gamma)	1	-0.772	-2.46	4.22	inactive
GMFG (glia maturation factor gamma)	2	-0.517	-0.667	3.67	inactive
GMFG (glia maturation factor gamma)	3	-1.08	-4.63	1.72	inactive

Targets above whose gene name starts with M or m:
gene	reagent no.	G2 robust z-score	G2 cells, % of GMNN control	raw share of cells in G2 (%)	Outcome
MRPL20 (mitochondrial ribosomal protein L20)	1	3.37	26.6	14.8	inactive
MRPL20 (mitochondrial ribosomal protein L20)	2	-0.262	1.12	4.6	inactive
MRPL20 (mitochondrial ribosomal protein L20)	3	-1.2	-5.44	1.4	inactive
